# Test results as given in PubChem BioAssay AID504834 (National Center for Advancing Translational Sciences (NCATS), 2011).
# Among all 320,000 compounds or so, about 22,000 (6.9%) were called active. This list was built around the results that the source calls inconclusive (neither active nor inactive); the mix of calls is not that of the screen. The call rests on the fitted dose curve; in most records, active means well fitted inhibition curve with a large enough effect; inconclusive means small, poorly fitted or top-dose-only effect, or another doubt; inactive means no such curve, though single readings can be large or run the other way. Potencies of inconclusive entries are doubtful fits and often do not repeat.
# Assay: Primary qHTS for delayed death inhibitors of the malarial parasite plastid, 96 hour incubation
# Details: P. falciparum luciferase reporter growth; series mostly up to 28.7 µM; activity change, negative = inhibition: at the top concentration
# Summary of the method: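 Two-generation exposure (96 h) targets delayed-death phenotype. Reporter parasites carrying integrated firefly luciferase, in red cells at 2% hematocrit and 0.05% parasitemia final, kept at 37 C, 5% CO2; luminescence loss indicates inhibition.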
# On the % scale 0 is the no-effect control and ±100 the full control effect; potency means the concentration at half of the fitted maximal effect.
SMILES,Potency,"activity change, negative = inhibition"
O=C(N/N=C/c1cn(Cc2cccc(F)c2)c2ccccc12)c1cc(O)cc(O)c1,"inconclusive: 11.7 µM [inhibitor, single point]",–
CCOC(=O)N1CCC(N2Cc3cccc(C(=O)NCc4ccc(OC)cc4)c3C2=O)CC1,–,inactive: -0.876%
C=CCn1c(SCc2c(C)noc2C)nc2ccccc2c1=O,active: 13.1 µM,–
O=C1CC(c2ccccc2)CC(O)=C1C=Nc1ccccc1 (centres undefined),–,inactive: 23.9%
CCOc1ccccc1Nc1ncnc2ccc(Br)cc12,"inconclusive: 1.31 µM [inhibitor, partial curve, poor fit]",–
COC(=O)[C@H](C)NC(=O)Nc1ccc(OC)c(OC)c1,–,inactive: 22.2%
CC(=O)c1ccc(S(=O)(=O)NCCCC(=O)N(C)Cc2ccc3c(c2)OCO3)cc1,"inconclusive: 14.7 µM [inhibitor, partial curve, poor fit]",–
COCCN1C(=O)C(=O)/C(=C(/O)c2ccc(S(=O)(=O)N3CCCCC3)cc2)C1c1ccc(O)c(OC)c1 (centres undefined),–,inactive: 14.4%
CCOC(=O)c1c(C)[nH]c(C)c1C(=O)CN1C(=O)NC2(CCCCCC2)C1=O,"inconclusive: 3.29 µM [inhibitor, full curve, poor fit]",–
Cc1ccc2c(CN(C)Cc3cccc(F)c3)cc(=O)oc2c1C,–,inactive: 2.69%
COc1ccc(NC(=O)Cn2c(C)csc2=O)c(OC)c1,"inconclusive: 18.5 µM [inhibitor, single point]",–
O=C1CC(N2CCOCC2)C(=O)N1c1cccc(Cl)c1 (centres undefined),"inconclusive: 4.15 µM [inhibitor, partial curve]",–
COc1ccc(N2CCN(c3ccc(N4C(=O)CC(C)C4=O)cc3[N+](=O)[O-])CC2)cc1 (centres undefined),–,inactive: 8.94%
Cc1ccc2c(c1)N(S(=O)(=O)c1ccc(CN3C(=O)c4cccnc4C3=O)cc1)CCO2,"inconclusive: 13.1 µM [inhibitor, single point]",–
COc1ccc(NC(=O)CSc2nnnn2-c2ccccc2OC)c(OC)c1,"inconclusive: 18.5 µM [inhibitor, single point]",–
COc1ccc(-n2ncc(S(=O)(=O)c3ccccc3)c2-c2ccc(Cl)cc2)cc1,"inconclusive: 4.15 µM [inhibitor, single point]",–
CC(C)c1ccc(C(O)Cc2nc3ccccc3n2C)cc1 (centres undefined),"inconclusive: 18.5 µM [inhibitor, single point]",–
COC(=O)c1ccc(NC(=O)COc2ccc(N(C)S(=O)(=O)c3ccc(C)cc3)cc2)cc1,"inconclusive: 14.7 µM [inhibitor, partial curve, poor fit]",–
O=C(Nc1ccc2oc(=O)ccc2c1)c1cc2ccccc2o1,"inconclusive: 9.28 µM [inhibitor, partial curve, poor fit]",–
C=CCn1c(CNc2ccc(C)cc2)nnc1SCC(=O)N/N=C/c1ccc(O)cc1O,"inconclusive: 11.7 µM [inhibitor, single point]",–
O=C(Nc1ccc(Cn2cccn2)cc1)c1ccc(COc2ccccc2Br)cc1,active: 11.7 µM,–
O=c1nc(N/N=C/c2c[nH]c3ccccc23)cn[nH]1,active: 0.415 µM,–

# Reformatted tab-delimited: part of the list above.
SMILES	Potency	activity change, negative = inhibition
O=C(Nc1ccc2oc(=O)ccc2c1)c1cc2ccccc2o1	inconclusive: 9.28 µM [inhibitor, partial curve, poor fit]	–
C=CCn1c(CNc2ccc(C)cc2)nnc1SCC(=O)N/N=C/c1ccc(O)cc1O	inconclusive: 11.7 µM [inhibitor, single point]	–
O=C(Nc1ccc(Cn2cccn2)cc1)c1ccc(COc2ccccc2Br)cc1	active: 11.7 µM	–

# (next part)

SMILES,Potency,"activity change, negative = inhibition"
CCOC(=O)Cn1ccc(NC(=O)c2ccc(F)cc2)n1,"inconclusive: 11.7 µM [inhibitor, single point]",–
O=C(CCN1C(=O)/C(=C/c2ccccc2)SC1=S)N1CCCCCC1,–,inactive: 21.7%
Cc1ccc(S(=O)(=O)NC2CC(C)(C)NC(C)(C)C2)cc1C,"inconclusive: 18.5 µM [inhibitor, single point]",–
O=C(CSc1nnc(CNC(=O)C23CC4CC(CC(C4)C2)C3)n1-c1ccc(F)cc1)Nc1ccc(F)cc1,"inconclusive: 4.15 µM [inhibitor, partial curve, poor fit]",–
CN(C)S(=O)(=O)c1ccc(C(=O)NCCN2C(=O)S/C(=C\c3cccnc3)C2=O)cc1,"inconclusive: 5.22 µM [inhibitor, single point]",–
COc1ccc(Nc2nc(-c3ccccc3)nc3ccccc23)c(OC)c1,"inconclusive: 18.5 µM [inhibitor, single point]",–
Cc1nc2c(C(=O)NCc3cccs3)cnn2c(C)c1Cc1ccccc1,"inconclusive: 11.7 µM [inhibitor, single point]",–
COc1cc2[nH]c(=S)nc(NCc3ccccc3)c2cc1OC,active: 0.522 µM,–
Cc1ccccc1C(=O)Oc1ccc(-c2csnn2)cc1,–,inactive: 49.1%
CC1Cc2nc(SCC(=O)Nc3ccc(F)cc3F)n(C)c(=O)c2S1 (centres undefined),"inconclusive: 0.738 µM [inhibitor, full curve, poor fit]",–
C/C(=N\NC(=O)c1nnn(-c2nonc2N)c1-c1ccc2c(c1)OCO2)c1ccccc1,active: 14.7 µM,–
CCCc1cc(=O)oc2c(CN3CCN(C)CC3)c(O)c(Cl)cc12,–,inactive: -2.69%
CC1CCCN(Cc2c(O)ccc3c(=O)c(-c4ccc(Cl)cc4)coc23)C1 (centres undefined),–,inactive: -10.1%
O=C1CC(N2CCN(c3ccccc3)CC2)C(=O)N1Cc1ccc(Cl)cc1 (centres undefined),–,inactive: -22.4%
CC1CCCN(C(=O)C2CCN(C(=O)Nc3ccccc3)CC2)C1 (centres undefined),"inconclusive: 6.57 µM [inhibitor, partial curve, poor fit]",–
COc1ccc(S(=O)(=O)N2CCOC23CCN(C(=O)c2ccccc2OC)CC3)cc1,"inconclusive: 10.4 µM [inhibitor, partial curve, poor fit]",–
Cc1ccc(Cl)c(OCC(=O)Nc2cc(S(=O)(=O)N3CCOCC3)ccc2N2CCCC2)c1,active: 8.28 µM,–
COc1ccc(C(=O)Nc2cc(-c3nn4c(C)nnc4s3)ccc2C)cc1,"inconclusive: 18.5 µM [inhibitor, single point]",–
Nc1oc2ccccc2c(=O)c1C=O,–,inactive: 53.2%
COc1ccc(CN(C)CC(=O)NCC(=O)Nc2c(C)cccc2C)cc1,"inconclusive: 18.5 µM [inhibitor, single point]",–
O=C(C1CCN(c2ccc(N3CCOCC3)nn2)CC1)N1CCN(c2ccc(F)cc2)CC1,"inconclusive: 1.04 µM [inhibitor, partial curve, poor fit]",–
COC(=O)NC(NC(=S)Nc1ccc([N+](=O)[O-])cc1)C(Cl)(Cl)Cl (centres undefined),–,inactive: -6.39%
